Source: the supplement of paper PMC10849652
This is one part of the list.

Protein sequences, listed by entry. Tags and fused reporters are not part of them. Lines headed by an entry give the natural chain unless they say otherwise; changes in a name come on top.
UniProt Q9Y2G3: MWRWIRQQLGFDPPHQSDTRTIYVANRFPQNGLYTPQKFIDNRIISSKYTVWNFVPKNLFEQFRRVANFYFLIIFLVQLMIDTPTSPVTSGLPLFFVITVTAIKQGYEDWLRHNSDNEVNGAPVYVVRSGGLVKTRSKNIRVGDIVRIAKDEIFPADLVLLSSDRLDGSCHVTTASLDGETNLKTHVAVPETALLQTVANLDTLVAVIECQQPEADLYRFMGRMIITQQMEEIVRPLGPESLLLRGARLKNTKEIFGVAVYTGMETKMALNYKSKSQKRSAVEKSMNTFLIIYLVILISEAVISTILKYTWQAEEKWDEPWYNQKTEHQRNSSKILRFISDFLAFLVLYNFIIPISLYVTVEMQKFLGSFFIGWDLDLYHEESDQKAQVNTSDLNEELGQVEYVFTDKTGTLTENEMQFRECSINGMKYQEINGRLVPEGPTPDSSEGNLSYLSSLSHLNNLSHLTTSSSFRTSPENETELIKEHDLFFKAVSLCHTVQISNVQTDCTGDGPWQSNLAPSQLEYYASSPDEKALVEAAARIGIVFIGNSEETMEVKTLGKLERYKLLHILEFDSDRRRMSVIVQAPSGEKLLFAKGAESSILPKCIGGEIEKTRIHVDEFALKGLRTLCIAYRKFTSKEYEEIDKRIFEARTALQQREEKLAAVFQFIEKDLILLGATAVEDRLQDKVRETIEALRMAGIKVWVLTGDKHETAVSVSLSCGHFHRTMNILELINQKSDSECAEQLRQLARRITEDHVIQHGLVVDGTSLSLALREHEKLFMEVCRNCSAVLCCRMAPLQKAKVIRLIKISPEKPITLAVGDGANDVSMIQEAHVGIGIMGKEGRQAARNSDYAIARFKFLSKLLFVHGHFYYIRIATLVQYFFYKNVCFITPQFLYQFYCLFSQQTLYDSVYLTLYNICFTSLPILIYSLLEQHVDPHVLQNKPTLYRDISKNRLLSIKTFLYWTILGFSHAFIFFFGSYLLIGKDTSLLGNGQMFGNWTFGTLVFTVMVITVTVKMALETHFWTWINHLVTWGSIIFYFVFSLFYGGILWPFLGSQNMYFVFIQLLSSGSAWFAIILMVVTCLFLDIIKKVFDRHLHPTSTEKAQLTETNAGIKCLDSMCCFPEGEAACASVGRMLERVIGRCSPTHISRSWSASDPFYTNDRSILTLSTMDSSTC
UniProt Q9NVP2, whole entry, looked up: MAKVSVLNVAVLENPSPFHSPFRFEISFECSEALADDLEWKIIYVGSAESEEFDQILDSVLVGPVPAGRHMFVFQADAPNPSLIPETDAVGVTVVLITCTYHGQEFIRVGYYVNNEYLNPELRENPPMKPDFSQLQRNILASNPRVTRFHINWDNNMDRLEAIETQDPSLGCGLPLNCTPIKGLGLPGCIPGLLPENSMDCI
UniProt Q8NBU5: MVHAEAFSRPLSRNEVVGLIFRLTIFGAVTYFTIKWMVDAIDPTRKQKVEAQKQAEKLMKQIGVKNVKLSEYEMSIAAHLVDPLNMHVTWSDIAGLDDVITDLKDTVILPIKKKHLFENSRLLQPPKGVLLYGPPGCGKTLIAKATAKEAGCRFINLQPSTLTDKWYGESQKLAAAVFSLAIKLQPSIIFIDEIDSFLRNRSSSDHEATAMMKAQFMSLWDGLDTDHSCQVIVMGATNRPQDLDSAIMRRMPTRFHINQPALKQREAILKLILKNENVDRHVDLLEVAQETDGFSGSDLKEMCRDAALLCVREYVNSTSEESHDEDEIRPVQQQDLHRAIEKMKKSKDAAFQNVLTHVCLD
UniProt P61421, whole entry, looked up: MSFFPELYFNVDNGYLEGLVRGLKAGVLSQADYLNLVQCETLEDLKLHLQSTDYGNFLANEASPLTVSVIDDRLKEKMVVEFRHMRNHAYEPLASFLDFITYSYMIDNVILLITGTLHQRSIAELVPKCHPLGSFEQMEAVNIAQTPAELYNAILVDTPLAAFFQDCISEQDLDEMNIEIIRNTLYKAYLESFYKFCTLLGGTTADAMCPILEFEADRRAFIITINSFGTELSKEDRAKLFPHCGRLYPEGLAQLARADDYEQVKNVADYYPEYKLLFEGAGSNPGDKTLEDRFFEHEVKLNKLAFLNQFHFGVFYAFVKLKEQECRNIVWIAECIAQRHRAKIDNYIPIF
UniProt P48047: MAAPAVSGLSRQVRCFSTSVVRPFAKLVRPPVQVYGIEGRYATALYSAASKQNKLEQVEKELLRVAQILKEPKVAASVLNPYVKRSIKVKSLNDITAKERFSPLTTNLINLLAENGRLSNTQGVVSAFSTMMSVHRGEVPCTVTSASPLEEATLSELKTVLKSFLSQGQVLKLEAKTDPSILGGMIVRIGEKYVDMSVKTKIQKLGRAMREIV
UniProt P56381: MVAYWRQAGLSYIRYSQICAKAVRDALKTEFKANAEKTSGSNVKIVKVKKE
UniProt Q15904, whole entry, looked up: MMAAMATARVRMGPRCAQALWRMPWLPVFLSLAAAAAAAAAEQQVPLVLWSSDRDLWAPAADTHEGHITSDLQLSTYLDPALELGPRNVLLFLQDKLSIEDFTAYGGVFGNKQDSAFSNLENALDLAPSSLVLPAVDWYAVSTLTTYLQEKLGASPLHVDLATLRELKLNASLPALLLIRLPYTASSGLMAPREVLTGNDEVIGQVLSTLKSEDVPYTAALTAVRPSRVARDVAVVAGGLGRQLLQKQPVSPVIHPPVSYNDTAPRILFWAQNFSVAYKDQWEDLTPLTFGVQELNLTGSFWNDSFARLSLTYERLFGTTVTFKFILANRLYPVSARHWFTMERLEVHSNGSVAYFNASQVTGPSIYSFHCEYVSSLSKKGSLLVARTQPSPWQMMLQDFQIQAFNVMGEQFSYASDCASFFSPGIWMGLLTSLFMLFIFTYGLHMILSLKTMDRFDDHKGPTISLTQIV
UniProt O00244: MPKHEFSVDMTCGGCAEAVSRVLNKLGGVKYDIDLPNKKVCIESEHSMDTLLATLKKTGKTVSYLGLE
UniProt O75882: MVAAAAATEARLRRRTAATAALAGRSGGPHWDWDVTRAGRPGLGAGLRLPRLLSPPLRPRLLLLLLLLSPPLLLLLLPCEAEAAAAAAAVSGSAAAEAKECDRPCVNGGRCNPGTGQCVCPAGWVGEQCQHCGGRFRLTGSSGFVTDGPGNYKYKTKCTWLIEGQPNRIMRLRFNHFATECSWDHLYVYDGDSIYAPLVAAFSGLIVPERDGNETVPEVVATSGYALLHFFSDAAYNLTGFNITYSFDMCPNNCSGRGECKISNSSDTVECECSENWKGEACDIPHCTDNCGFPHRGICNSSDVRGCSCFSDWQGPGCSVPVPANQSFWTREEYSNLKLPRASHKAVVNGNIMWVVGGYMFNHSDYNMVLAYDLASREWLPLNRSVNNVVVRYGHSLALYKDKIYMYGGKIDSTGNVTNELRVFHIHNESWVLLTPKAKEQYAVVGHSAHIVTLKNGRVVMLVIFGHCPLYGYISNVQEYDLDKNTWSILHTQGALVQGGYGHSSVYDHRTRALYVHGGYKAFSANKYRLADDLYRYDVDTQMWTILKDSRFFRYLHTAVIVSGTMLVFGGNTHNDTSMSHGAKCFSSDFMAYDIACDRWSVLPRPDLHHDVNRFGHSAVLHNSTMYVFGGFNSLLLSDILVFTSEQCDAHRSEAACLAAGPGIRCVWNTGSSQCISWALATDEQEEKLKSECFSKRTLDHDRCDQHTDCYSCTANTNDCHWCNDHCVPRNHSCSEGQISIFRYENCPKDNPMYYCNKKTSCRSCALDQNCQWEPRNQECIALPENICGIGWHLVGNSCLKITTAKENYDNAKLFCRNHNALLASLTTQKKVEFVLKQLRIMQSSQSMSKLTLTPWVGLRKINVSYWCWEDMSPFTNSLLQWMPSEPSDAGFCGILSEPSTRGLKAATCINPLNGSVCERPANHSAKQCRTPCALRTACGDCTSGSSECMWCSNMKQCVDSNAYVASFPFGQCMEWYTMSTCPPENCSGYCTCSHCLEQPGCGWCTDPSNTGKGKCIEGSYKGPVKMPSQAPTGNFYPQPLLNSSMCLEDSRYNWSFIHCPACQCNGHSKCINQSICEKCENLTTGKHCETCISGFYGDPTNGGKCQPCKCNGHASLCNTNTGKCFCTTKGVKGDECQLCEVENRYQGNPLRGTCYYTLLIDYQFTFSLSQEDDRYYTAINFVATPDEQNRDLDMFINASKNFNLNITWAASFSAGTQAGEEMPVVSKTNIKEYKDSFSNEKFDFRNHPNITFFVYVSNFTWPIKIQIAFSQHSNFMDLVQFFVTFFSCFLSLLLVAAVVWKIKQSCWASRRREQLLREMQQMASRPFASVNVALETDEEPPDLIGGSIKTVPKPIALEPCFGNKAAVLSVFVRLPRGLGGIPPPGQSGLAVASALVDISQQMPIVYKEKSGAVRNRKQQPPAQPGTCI
UniProt Q8WXE1: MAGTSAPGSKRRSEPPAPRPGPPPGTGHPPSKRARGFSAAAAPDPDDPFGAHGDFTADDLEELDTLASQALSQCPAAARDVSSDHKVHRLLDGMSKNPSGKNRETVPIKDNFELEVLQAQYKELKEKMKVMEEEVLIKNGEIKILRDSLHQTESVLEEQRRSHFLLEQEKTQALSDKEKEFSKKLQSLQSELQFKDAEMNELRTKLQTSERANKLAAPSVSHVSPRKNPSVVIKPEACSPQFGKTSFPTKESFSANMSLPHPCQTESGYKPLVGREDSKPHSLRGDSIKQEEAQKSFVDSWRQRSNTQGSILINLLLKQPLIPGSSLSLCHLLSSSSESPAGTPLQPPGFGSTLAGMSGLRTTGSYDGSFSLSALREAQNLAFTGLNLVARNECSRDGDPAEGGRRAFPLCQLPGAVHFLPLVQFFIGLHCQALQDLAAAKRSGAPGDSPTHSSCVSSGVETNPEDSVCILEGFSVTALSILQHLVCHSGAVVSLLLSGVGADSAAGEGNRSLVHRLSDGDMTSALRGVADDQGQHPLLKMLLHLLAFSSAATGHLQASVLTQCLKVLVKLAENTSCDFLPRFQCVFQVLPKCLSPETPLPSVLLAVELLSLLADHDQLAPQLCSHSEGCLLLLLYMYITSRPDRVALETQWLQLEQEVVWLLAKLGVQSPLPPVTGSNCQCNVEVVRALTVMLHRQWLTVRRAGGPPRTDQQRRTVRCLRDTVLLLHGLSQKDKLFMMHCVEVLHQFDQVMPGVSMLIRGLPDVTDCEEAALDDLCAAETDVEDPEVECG
UniProt Q9Y4P1: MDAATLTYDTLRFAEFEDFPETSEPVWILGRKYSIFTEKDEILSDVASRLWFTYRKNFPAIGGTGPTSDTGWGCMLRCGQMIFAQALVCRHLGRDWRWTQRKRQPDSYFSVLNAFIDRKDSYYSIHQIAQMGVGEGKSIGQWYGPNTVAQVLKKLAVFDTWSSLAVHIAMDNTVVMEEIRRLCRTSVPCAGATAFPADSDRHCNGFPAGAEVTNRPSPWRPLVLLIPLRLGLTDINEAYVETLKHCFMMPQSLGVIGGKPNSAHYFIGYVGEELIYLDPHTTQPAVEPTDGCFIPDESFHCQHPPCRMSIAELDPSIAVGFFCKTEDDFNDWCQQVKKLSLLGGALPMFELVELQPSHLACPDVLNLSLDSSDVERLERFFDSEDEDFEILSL
UniProt Q5TC12: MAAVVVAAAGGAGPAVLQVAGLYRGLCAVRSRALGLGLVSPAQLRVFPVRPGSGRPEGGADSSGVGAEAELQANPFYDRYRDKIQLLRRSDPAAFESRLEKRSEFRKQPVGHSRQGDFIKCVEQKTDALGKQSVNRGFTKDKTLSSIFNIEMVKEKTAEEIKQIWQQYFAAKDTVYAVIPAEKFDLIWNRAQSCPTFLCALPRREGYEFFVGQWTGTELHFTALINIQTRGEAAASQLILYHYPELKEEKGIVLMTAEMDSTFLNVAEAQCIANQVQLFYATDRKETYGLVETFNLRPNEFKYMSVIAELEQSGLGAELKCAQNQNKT
UniProt P36542: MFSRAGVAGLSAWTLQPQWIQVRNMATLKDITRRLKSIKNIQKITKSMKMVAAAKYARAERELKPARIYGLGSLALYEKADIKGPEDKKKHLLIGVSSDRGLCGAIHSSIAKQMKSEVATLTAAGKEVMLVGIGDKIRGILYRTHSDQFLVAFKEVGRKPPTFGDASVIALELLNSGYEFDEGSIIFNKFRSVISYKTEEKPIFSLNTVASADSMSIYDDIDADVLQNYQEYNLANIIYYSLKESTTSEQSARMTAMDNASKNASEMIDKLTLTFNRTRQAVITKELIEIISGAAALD
UniProt Q9UII2: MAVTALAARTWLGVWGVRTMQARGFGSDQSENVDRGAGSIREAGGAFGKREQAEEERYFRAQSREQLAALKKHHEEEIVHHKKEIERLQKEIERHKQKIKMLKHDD
UniProt Q9NT62, whole entry, looked up: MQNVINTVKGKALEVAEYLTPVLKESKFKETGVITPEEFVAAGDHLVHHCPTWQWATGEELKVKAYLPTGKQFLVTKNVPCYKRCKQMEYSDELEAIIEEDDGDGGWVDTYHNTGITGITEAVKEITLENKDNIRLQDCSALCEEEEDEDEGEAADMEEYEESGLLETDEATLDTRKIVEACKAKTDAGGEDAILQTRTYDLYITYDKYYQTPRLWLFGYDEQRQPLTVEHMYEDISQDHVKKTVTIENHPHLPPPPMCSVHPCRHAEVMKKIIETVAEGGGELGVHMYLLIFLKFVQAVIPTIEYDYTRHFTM

Tests used:
Assay in all cases: log2 fold change, soluble protein after heating vs DMSO (PISA); higher = thermal stabilisation; K562 lysate, 10 uM; active = over 0.2 and 3.5 SD of the protein, either way, in both replicates (recomputed)
[1] = compound: C1=CC=C(C=C1)[C@H](COC2=CC3=C(C=C2)NC(=O)N3)NC(=O)C4=CC=CN(C4=O)CC5=CC(=C(C=C5)F)F
Outline: (§1)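 Log-two fold change in thermal stability relative to solvent controls is reported from duplicates. For each sample, crude K562 extract from dounce-homogenised pellets in PBS pH 7.4 with 1 mM MgCl2, at 1 mg/mL protein, was treated with 10 μM compound for 30 min. Aliquots heated for 3 min across 48°C-58°C were pooled, brought to 0.5% NP-40 at 4°C and cleared at 21,000xg for 90 min. The supernatant was quantified by TMTpro 16plex LC-MS/MS with channel sums equalised.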

[2] = compound: CC1=C(SC2=C1C(=N[C@H](C3=NN=C(N32)C)CC(=O)N)C4=CC=C(C=C4)Cl)C
Outline: as §1

[3] = compound: CC1=C2C(=CC=C1)N=C(N(C2=O)C3=CC=CC=C3C)CN4C=NC5=C(N=CN=C54)N
Outline: as §1

[4] = compound: Cc1sc2c(c1C)C(c1ccc(Cl)cc1)=N[C@@H](CC(=O)OC(C)(C)C)c1nnc(C)n1-2
Outline: as §1

[5] = compound: c1ccc([C@@H]2C[C@H]2NC2CCNCC2)cc1
Outline: as §1

Measured: log2 fold change

AURKB isoform 5 (UniProt Q96GD4)
inactive: [1] 0.084 | [2] 0 | [3] -0.068 | [4] -0.008 | [5] -0.283

ATE1 isoform 2 (UniProt O95260)
inactive: [1] -0.015 | [2] -0.008 | [3] -0.004 | [4] 0.009 | [5] -0.087

ATP6V0A2 (UniProt Q9Y487)
inactive: [1] -0.011 | [2] -0.017 | [3] 0.026 | [4] -0.015 | [5] -0.114

ATP23 (UniProt Q9Y6H3)
inactive: [1] 0.013 | [2] 0.135 | [3] 0.032 | [4] -0.009 | [5] 0.126

ASL (UniProt P04424)
inactive: [1] -0.008 | [2] 0.023 | [3] 0.022 | [4] 0.005 | [5] 0.015

ASNA1 (UniProt O43681)
inactive: [1] 0.004 | [2] 0.003 | [3] -0.026 | [4] -0.001 | [5] 0.061

ATM (UniProt Q13315)
inactive: [1] -0.015 | [2] 0.013 | [3] -0.037 | [4] 0.038 | [5] -0.036

ATG16L1 (UniProt Q676U5)
inactive: [1] 0.007 | [2] -0.006 | [3] -0.027 | [4] -0.008 | [5] 0.025

ATP13A1 (UniProt Q9HD20)
inactive: [1] 0.006 | [2] -0.001 | [3] 0.079 | [4] 0.064 | [5] 0.03

ATP6V1B1 (UniProt P15313)
inactive: [1] 0.023 | [2] 0.004 | [3] 0.004 | [4] -0.023 | [5] -0.157

ATG10 (UniProt Q9H0Y0)
inactive: [1] 0.008 | [2] 0 | [3] -0.057 | [4] 0.047 | [5] 0.076

B3GNT2 (UniProt Q9NY97)
inactive: [1] 0.02 | [2] 0.075 | [3] 0.085 | [4] -0.028 | [5] 0.047

ATP11B (UniProt Q9Y2G3)
inactive: [1] 0.024 | [2] -0.032 | [3] 0.018 | [4] -0.015 | [5] -0.107

ASF1B (UniProt Q9NVP2)
inactive: [1] 0.03 | [2] 0.042 | [3] 0.039 | [4] 0.001 | [5] 0.033

ATAD1 (UniProt Q8NBU5)
inactive: [1] -0.052 | [2] 0.032 | [3] -0.015 | [4] -0.092 | [5] 0.002

ATP6V0D1 (UniProt P61421)
inactive: [1] -0.052 | [2] -0.06 | [3] -0.007 | [4] 0.012 | [5] -0.012

ATXN7L3B (UniProt Q96GX2)
inactive: [1] 0.069 | [2] -0.056 | [3] 0.03 | [4] 0.001 | [5] -0.052

ATXN3 isoform 1 (UniProt P54252)
inactive: [1] 0.053 | [2] -0.011 | [3] 0.061 | [4] 0.002 | [5] 0.016

ATP5PO (UniProt P48047)
inactive: [1] 0.011 | [2] -0.003 | [3] -0.033 | [4] 0.009 | [5] 0.06

ATP6V0A1 isoform 3 (UniProt Q93050)
inactive: [1] 0.05 | [2] -0.013 | [3] 0.05 | [4] -0.005 | [5] -0.074

AVL9 (UniProt Q8NBF6)
inactive: [1] 0.024 | [2] 0.025 | [3] 0.012 | [4] -0.026 | [5] -0.059

ASB6 (UniProt Q9NWX5)
inactive: [1] 0.012 | [2] 0.125 | [3] 0.005 | [4] 0.016 | [5] 0.028

ASPSCR1 (UniProt Q9BZE9)
inactive: [1] 0.013 | [2] -0.021 | [3] -0.006 | [4] 0.034 | [5] 0.001

AUNIP isoform 2 (UniProt Q9H7T9)
inactive: [1] -0.032 | [2] 0.114 | [3] -0.024 | [4] -0.01 | [5] -0.159

ATG13 isoform 2 (UniProt O75143)
inactive: [1] 0.001 | [2] 0.026 | [3] 0.055 | [4] 0.045 | [5] -0.166

B3GNT5 (UniProt Q9BYG0)
inactive: [1] 0.066 | [2] 0.174 | [3] -0.037 | [4] -0.11 | [5] -0.088

ATG2B (UniProt Q96BY7)
inactive: [1] -0.064 | [2] -0.009 | [3] 0.053 | [4] -0.009 | [5] 0.019

ASCC2 (UniProt Q9H1I8)
inactive: [1] 0.181 | [2] 0.063 | [3] -0.027 | [4] -0.019 | [5] 0.076

ATN1 (UniProt P54259)
inactive: [1] -0.007 | [2] 0.006 | [3] -0.028 | [4] 0.015 | [5] -0.077

ATP5F1E (UniProt P56381)
inactive: [1] 0.092 | [2] -0.068 | [3] 0.016 | [4] 0.001 | [5] -0.036

ATP6AP1 (UniProt Q15904)
inactive: [1] 0 | [2] -0.035 | [3] 0.039 | [4] -0.06 | [5] -0.024

ATOX1 (UniProt O00244)
inactive: [1] -0.067 | [2] 0.008 | [3] -0.052 | [4] -0.016 | [5] 0

ATRN (UniProt O75882)
inactive: [1] -0.059 | [2] -0.061 | [3] -0.005 | [4] -0.03 | [5] 0.034

ATP5MG (UniProt O75964)
inactive: [1] -0.046 | [2] -0.024 | [3] 0.018 | [4] -0.038 | [5] -0.028

ATRIP (UniProt Q8WXE1)
inactive: [1] -0.042 | [2] -0.02 | [3] -0.056 | [4] -0.032 | [5] 0.093

ATG4B (UniProt Q9Y4P1)
inactive: [1] 0.004 | [2] 0.034 | [3] 0.017 | [4] -0.002 | [5] 0.051

ATPAF1 (UniProt Q5TC12)
inactive: [1] 0.024 | [2] 0.054 | [3] 0.004 | [4] 0.038 | [5] 0.069

ATP2B4 (UniProt P23634)
inactive: [1] -0.021 | [2] 0.036 | [3] 0.059 | [4] 0.029 | [5] -0.081

AURKAIP1 (UniProt Q9NWT8)
inactive: [1] 0.05 | [2] 0.032 | [3] -0.014 | [4] 0.024 | [5] 0.034

ATAD3B (UniProt Q5T9A4)
inactive: [1] 0.082 | [2] -0.033 | [3] -0.021 | [4] 0.047 | [5] 0.172

ATXN2 (UniProt F8WB05)
inactive: [1] -0.17 | [2] 0.212 | [3] 0.146 | [4] 0.004 | [5] 0.022

ATG2A isoform 3 (UniProt Q2TAZ0)
inactive: [1] -0.064 | [2] 0.026 | [3] 0.104 | [4] 0.035 | [5] 0.031

ATP5F1C (UniProt P36542)
inactive: [1] 0.041 | [2] -0.018 | [3] 0.018 | [4] -0.007 | [5] 0.03

ATP6V1E1 (UniProt P36543)
inactive: [1] 0.015 | [2] -0.007 | [3] -0.012 | [4] -0.048 | [5] -0.081

Two entries picked at random from the list so far:
ATXN2 (UniProt F8WB05)
inactive: [1] -0.17 | [2] 0.212 | [3] 0.146 | [4] 0.004 | [5] 0.022

ATP6V1E1 (UniProt P36543)
inactive: [1] 0.015 | [2] -0.007 | [3] -0.012 | [4] -0.048 | [5] -0.081

(cont.)

ATP7A isoform 3 (UniProt Q04656)
inactive: [1] 0 | [2] 0.006 | [3] 0.019 | [4] 0.01 | [5] 0.034

ATP5MC2 isoform 2 (UniProt Q06055)
inactive: [1] -0.009 | [2] 0.02 | [3] 0.096 | [4] -0.036 | [5] -0.118

ATP5IF1 (UniProt Q9UII2)
inactive: [1] 0.021 | [2] 0.027 | [3] -0.019 | [4] -0.02 | [5] -0.072

ATP6V1E2 (UniProt Q96A05)
inactive: [1] -0.003 | [2] -0.009 | [3] 0.043 | [4] -0.103 | [5] -0.048

ATG3 (UniProt Q9NT62)
inactive: [1] 0.075 | [2] -0.025 | [3] 0.023 | [4] 0.008 | [5] -0.005

ATP2A2 (UniProt P16615)
inactive: [1] -0.01 | [2] 0.006 | [3] 0.041 | [4] -0.038 | [5] -0.017

ASMTL (UniProt O95671)
inactive: [1] -0.041 | [2] -0.008 | [3] 0.023 | [4] 0.073 | [5] 0

ASCC1 isoform 2 (UniProt Q8N9N2)
inactive: [1] 0.033 | [2] -0.009 | [3] 0.039 | [4] -0.04 | [5] 0
